Results are given in words; binding and its absence hold for the method and conditions named. For some of these results: A result given as binding can be weak or reduced; the word gives no strength. For some of these results: Tags and fused reporters may be left off the sequences shown.
How the values were obtained:
[1] = biological target: T1, hexa-His-tagged CrODA16 (CrODA16-HT) (Chlamydomonas reinhardtii, UniProt Q3Y8L7 1-446); test: pull-down; CrODA16-HT immobilised on nickel resin; two preys added together (CrIFT46 with CrIDA3, also at 3:1 excess of CrIFT46; CrIFT46 with CrArl3), beside each prey alone; both purified
T1 construct: ODA16, Chlamydomonas reinhardtii; Bait on nickel resin
T1 sequence (looked up): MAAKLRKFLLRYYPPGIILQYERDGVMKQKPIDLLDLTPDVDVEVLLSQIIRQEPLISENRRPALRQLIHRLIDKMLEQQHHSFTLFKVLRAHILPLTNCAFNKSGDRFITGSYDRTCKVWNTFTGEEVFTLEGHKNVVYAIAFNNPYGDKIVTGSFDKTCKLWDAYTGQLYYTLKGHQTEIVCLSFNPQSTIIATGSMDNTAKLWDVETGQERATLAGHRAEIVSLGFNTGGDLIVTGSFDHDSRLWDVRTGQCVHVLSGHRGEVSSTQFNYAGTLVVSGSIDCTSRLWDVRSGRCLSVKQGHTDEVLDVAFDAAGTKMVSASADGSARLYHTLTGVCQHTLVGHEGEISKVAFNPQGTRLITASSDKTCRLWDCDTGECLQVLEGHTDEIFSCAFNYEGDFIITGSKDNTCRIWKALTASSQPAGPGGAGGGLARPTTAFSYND

Sequences of proteins named here, by UniProt entry; tags and fusion partners are left off. A change or cut given only in a name is not applied to a line headed by its entry.
UniProt A8ISN6: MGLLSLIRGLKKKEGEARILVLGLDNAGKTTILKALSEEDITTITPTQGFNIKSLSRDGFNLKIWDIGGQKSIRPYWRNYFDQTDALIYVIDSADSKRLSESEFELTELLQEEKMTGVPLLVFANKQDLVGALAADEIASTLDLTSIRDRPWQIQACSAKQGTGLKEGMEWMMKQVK

[2] = biological target: T2, full-length CrODA16 (CrODA16fl) (Chlamydomonas reinhardtii, UniProt Q3Y8L7 1-446); test: SEC; Superose 6 Increase 10/300 column; SDS-PAGE of the peaks; both purified
T2 construct: ODA16, Chlamydomonas reinhardtii, full length (N-terminal domain residues 1-80, C-terminal beta-propeller residues 80-445); it may be the same protein as CrODA16-HT
T2 sequence (looked up): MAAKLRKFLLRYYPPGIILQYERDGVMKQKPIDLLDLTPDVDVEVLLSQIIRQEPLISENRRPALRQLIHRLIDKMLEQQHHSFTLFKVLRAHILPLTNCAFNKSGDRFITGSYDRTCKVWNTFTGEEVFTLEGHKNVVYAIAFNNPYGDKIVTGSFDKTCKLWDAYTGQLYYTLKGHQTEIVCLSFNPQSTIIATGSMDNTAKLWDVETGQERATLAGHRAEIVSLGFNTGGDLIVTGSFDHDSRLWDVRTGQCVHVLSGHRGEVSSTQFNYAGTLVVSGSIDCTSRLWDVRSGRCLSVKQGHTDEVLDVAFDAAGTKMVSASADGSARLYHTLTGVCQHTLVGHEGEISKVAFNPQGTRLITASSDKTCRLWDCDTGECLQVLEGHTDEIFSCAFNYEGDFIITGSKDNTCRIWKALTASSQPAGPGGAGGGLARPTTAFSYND

[3] = biological target: T1, hexa-His-tagged CrODA16 (CrODA16-HT); test: pull-down; CrODA16-HT immobilised on nickel resin; CrArl3 variant reloaded with 1 mM MgCl2 and 1 mM nucleotide (GTP for Q70L, GDP for T30N); both purified
[4] = biological target: GST-CrArl3 (variant not named) (Chlamydomonas reinhardtii) (UniProt A8ISN6); test: pull-down; competitive binding (titration) assay: GST-tagged bait (10 μM) pre-complexed with CrODA16 (20 μM) on GSH resin, washed, then untagged competitor at rising concentrations, 1 h 4 °C; eluted with 33 mM glutathione, SDS-PAGE; both purified
[5] = biological target: GST-CrArl3_Q70L (Chlamydomonas reinhardtii) (UniProt A8ISN6); test: pull-down; GST-tagged bait (10 μM) immobilised on GSH resin, prey 20–30 μM, 1 h 4 °C; 10 mM HEPES pH 7.5, 200 mM NaCl, 2 mM MgCl2, 1 mM DTT; eluted with 33 mM reduced glutathione, SDS-PAGE; both purified
[6] = biological target: GST-CrArl3_Q70L (Chlamydomonas reinhardtii) (UniProt A8ISN6); test: condition: prey 20–30 μM, bait 10 μM (general pull-down methods); pull-down; GST-tagged bait (10 μM) immobilised on GSH resin, prey 20–30 μM, 1 h 4 °C; 10 mM HEPES pH 7.5, 200 mM NaCl, 2 mM MgCl2, 1 mM DTT; eluted with 33 mM reduced glutathione, SDS-PAGE; both purified

For “CrArl3 (untagged; variant not named) (from UniProt A8ISN6) (enzyme)”, the binding [1] was “binds” and the binding [2] was “binds”.

In the case of “CrArl3_T30N (GDP-locked) (from UniProt A8ISN6) (enzyme)”, the binding [3] is reported as “binds”.

B1: full-length CrODA16 (CrODA16fl) (protein, UniProt Q3Y8L7 1-446)
chain: MAAKLRKFLLRYYPPGIILQYERDGVMKQKPIDLLDLTPDVDVEVLLSQIIRQEPLISENRRPALRQLIHRLIDKMLEQQHHSFTLFKVLRAHILPLTNCAFNKSGDRFITGSYDRTCKVWNTFTGEEVFTLEGHKNVVYAIAFNNPYGDKIVTGSFDKTCKLWDAYTGQLYYTLKGHQTEIVCLSFNPQSTIIATGSMDNTAKLWDVETGQERATLAGHRAEIVSLGFNTGGDLIVTGSFDHDSRLWDVRTGQCVHVLSGHRGEVSSTQFNYAGTLVVSGSIDCTSRLWDVRSGRCLSVKQGHTDEVLDVAFDAAGTKMVSASADGSARLYHTLTGVCQHTLVGHEGEISKVAFNPQGTRLITASSDKTCRLWDCDTGECLQVLEGHTDEIFSCAFNYEGDFIITGSKDNTCRIWKALTASSQPAGPGGAGGGLARPTTAFSYND
B1 was tested, and the binding [4] was “binds” and the binding [5] was “binds”.

B2: CrODA16 C-terminal β-propeller, CrODA16C(80-423) (domain or fragment, UniProt Q3Y8L7 80-423)
chain: QHHSFTLFKVLRAHILPLTNCAFNKSGDRFITGSYDRTCKVWNTFTGEEVFTLEGHKNVVYAIAFNNPYGDKIVTGSFDKTCKLWDAYTGQLYYTLKGHQTEIVCLSFNPQSTIIATGSMDNTAKLWDVETGQERATLAGHRAEIVSLGFNTGGDLIVTGSFDHDSRLWDVRTGQCVHVLSGHRGEVSSTQFNYAGTLVVSGSIDCTSRLWDVRSGRCLSVKQGHTDEVLDVAFDAAGTKMVSASADGSARLYHTLTGVCQHTLVGHEGEISKVAFNPQGTRLITASSDKTCRLWDCDTGECLQVLEGHTDEIFSCAFNYEGDFIITGSKDNTCRIWKALTASS
In the case of B2, the binding [5] is reported as “binds”.

B3: CrODA16 N-terminal domain, CrODA16N(1-80) (domain or fragment, UniProt Q3Y8L7 1-80)
chain: MAAKLRKFLLRYYPPGIILQYERDGVMKQKPIDLLDLTPDVDVEVLLSQIIRQEPLISENRRPALRQLIHRLIDKMLEQQ
With B3 the binding [6] was “no binding”.
